Results: the supplement of paper PMC10849652
This is one part of the list.

Protein sequences, listed by entry. Tags and fused reporters are not part of them. Lines headed by an entry give the natural chain unless they say otherwise; changes in a name come on top.
UniProt Q8N392: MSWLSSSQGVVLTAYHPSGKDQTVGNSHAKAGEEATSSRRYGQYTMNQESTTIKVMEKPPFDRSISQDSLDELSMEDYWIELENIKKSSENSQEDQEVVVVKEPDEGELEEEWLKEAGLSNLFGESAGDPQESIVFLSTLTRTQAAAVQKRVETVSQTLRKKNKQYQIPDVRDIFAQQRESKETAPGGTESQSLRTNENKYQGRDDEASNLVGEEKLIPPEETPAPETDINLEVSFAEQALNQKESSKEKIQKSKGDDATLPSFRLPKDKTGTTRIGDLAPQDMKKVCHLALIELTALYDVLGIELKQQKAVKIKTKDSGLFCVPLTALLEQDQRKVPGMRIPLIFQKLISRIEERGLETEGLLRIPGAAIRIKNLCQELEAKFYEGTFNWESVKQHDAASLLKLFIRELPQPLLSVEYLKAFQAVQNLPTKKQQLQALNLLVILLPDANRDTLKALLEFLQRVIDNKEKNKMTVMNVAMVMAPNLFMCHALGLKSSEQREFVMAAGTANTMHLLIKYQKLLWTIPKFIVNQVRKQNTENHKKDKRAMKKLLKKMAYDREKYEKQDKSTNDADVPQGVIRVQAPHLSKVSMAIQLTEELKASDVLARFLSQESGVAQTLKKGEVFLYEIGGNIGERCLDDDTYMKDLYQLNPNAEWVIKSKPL
UniProt P13798: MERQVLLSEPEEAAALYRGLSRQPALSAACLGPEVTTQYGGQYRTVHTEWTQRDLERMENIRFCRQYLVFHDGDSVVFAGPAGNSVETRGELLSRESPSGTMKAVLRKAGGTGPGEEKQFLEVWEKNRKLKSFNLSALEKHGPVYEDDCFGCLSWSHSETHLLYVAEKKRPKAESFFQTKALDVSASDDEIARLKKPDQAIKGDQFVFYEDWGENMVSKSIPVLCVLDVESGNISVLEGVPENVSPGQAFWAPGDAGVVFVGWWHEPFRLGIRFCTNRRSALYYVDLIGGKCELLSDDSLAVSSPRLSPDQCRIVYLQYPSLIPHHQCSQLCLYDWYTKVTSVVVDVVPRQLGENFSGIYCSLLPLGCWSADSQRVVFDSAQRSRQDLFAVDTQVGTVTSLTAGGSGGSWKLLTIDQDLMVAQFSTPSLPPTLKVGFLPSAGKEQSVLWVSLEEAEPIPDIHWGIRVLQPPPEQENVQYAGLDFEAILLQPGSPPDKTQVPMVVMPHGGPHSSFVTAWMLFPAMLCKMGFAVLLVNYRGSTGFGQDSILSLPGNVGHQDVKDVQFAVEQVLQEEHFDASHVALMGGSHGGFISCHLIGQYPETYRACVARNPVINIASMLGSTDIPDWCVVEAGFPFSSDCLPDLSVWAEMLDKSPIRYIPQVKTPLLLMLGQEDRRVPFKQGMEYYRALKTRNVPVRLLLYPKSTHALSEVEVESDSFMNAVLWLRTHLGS
UniProt Q9HDC9: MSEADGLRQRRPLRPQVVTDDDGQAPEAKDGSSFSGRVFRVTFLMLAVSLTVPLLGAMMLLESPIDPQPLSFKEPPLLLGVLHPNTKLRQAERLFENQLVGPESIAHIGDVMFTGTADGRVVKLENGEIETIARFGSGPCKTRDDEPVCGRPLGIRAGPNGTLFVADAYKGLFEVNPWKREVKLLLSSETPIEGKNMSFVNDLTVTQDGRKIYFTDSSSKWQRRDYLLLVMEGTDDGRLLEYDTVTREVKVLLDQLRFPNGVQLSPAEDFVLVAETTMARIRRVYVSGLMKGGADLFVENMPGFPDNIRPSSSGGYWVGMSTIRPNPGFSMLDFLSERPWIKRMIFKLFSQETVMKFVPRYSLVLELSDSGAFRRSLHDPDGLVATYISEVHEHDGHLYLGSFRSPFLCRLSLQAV
UniProt P07741: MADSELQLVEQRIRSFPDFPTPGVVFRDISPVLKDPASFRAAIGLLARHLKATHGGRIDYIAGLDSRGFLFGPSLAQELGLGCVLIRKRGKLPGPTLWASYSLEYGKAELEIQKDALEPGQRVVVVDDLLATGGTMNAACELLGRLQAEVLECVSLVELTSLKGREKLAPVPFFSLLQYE
UniProt O15084: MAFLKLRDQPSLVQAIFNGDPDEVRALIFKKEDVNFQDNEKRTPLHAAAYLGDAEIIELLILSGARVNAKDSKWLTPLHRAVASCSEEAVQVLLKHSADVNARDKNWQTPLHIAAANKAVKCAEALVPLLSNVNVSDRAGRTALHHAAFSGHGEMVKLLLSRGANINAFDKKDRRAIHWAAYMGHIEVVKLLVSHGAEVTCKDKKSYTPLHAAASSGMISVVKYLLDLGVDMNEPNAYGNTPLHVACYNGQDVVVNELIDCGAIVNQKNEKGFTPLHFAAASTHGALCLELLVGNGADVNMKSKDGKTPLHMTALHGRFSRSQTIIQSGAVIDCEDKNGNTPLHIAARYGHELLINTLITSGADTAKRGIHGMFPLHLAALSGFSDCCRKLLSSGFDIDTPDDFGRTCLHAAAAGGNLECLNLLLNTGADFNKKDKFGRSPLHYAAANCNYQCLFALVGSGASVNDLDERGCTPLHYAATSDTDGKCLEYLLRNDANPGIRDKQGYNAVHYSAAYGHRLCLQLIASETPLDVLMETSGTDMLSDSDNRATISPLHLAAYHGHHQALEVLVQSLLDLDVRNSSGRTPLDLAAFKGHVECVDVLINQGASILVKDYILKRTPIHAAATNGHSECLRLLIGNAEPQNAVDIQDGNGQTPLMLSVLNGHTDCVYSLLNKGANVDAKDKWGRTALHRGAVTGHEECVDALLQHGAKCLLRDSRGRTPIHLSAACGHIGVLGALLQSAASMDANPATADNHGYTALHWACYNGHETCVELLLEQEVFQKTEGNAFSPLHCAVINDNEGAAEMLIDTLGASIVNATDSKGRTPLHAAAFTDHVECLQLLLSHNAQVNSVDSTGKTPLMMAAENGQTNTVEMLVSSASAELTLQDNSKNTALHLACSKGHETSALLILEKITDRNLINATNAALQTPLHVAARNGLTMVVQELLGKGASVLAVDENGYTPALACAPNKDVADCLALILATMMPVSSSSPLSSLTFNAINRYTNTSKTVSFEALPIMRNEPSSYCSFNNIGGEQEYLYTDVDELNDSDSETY
UniProt Q9BXS5: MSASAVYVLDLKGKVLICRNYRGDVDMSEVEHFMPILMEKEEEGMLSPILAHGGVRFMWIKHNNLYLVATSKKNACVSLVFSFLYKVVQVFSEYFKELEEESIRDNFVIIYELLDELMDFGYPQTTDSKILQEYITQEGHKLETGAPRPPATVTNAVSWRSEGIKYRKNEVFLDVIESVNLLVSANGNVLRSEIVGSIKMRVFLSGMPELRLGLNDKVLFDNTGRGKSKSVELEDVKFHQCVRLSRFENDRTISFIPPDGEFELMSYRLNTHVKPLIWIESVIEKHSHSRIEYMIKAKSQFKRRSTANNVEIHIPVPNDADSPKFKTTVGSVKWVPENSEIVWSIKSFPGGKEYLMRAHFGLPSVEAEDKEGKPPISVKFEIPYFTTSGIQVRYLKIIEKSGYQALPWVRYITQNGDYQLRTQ
UniProt P52565: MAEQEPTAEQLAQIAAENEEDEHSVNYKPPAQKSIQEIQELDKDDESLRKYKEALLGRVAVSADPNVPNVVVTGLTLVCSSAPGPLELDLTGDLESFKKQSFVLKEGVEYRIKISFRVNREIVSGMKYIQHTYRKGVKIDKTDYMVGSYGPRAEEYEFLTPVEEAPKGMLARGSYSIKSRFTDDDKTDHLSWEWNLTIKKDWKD
UniProt P27695, whole entry, looked up: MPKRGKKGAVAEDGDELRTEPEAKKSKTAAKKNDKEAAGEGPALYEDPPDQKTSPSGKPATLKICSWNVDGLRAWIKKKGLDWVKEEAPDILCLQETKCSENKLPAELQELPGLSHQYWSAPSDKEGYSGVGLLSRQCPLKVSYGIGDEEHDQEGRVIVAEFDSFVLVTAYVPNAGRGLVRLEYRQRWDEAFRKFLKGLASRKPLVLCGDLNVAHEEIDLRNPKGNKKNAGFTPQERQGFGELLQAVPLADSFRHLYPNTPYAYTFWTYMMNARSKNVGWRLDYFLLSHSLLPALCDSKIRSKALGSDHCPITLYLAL
UniProt O60306: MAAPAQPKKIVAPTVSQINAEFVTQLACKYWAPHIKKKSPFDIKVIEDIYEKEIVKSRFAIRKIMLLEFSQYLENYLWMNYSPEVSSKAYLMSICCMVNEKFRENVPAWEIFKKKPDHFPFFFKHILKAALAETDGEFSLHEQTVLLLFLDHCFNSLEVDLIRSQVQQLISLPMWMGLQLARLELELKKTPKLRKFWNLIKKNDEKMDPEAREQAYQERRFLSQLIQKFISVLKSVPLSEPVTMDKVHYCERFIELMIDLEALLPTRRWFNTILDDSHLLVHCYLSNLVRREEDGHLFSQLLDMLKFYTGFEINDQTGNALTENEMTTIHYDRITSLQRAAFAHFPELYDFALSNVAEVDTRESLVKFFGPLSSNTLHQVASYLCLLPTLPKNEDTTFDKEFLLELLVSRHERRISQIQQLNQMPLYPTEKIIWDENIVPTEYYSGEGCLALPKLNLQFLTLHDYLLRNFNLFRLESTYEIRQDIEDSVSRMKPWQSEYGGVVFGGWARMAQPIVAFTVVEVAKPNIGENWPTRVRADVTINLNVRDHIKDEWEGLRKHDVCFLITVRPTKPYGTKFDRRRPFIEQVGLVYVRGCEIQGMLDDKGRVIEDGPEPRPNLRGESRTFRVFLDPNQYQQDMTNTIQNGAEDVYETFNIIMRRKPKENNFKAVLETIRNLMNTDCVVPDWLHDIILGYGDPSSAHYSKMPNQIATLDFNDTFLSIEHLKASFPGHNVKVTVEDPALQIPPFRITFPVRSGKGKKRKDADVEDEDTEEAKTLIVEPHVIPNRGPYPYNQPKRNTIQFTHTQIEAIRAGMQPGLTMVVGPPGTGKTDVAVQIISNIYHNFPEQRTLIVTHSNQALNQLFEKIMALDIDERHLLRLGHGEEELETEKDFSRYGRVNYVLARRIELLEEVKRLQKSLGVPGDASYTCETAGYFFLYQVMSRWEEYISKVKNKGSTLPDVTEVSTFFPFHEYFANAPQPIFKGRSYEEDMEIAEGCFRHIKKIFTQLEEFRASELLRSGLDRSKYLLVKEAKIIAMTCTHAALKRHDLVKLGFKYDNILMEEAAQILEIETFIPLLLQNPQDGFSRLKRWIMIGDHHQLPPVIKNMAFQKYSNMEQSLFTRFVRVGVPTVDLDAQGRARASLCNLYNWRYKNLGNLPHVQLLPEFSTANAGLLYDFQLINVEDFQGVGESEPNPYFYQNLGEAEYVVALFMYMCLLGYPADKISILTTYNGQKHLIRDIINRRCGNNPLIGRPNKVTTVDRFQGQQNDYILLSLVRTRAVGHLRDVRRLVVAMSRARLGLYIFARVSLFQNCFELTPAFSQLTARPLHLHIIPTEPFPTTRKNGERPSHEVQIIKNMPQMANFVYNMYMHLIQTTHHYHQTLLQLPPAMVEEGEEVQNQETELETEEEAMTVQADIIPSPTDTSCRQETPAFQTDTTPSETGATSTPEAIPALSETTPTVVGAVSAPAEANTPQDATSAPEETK
UniProt Q14155: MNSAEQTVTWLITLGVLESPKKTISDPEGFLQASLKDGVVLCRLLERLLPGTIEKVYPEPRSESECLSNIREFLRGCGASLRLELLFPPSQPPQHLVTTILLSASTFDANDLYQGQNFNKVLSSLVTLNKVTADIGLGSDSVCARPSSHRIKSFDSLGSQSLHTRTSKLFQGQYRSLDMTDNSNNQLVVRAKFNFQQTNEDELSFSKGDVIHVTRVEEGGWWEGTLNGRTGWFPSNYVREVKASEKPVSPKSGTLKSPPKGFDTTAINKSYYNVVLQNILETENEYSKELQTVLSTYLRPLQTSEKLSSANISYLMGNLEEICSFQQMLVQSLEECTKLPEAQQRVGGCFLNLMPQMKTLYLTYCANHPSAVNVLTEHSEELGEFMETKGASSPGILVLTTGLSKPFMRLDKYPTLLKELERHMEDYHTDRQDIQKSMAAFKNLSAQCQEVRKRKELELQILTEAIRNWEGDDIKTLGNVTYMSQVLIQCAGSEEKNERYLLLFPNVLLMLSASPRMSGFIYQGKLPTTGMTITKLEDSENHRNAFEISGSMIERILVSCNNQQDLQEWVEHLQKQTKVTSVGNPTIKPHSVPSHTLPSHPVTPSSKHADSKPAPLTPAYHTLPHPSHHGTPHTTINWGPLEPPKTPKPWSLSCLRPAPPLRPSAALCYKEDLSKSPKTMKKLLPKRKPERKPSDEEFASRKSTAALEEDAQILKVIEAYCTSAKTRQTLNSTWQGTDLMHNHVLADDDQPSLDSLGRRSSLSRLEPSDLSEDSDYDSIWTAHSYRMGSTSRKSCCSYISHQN
UniProt P09525: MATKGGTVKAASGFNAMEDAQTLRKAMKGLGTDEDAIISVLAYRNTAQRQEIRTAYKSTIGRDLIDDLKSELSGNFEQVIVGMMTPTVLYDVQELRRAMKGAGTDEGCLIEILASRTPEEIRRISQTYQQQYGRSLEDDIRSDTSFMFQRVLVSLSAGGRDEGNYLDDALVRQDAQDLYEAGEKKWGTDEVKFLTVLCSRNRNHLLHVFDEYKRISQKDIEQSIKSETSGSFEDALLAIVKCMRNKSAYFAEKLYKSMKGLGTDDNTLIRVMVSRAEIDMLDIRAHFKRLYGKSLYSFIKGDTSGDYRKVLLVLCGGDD

Assays:
Experiment in all cases: log2 fold change, soluble protein after heating vs DMSO (PISA); higher = thermal stabilisation; K562 cells, 10 uM, 30 min; active = over 0.2 and 3.5 SD of the protein, either way, in both replicates (recomputed)
saracatinib = compound: CN1CCN(CCOc2cc(OC3CCOCC3)c3c(Nc4c(Cl)ccc5c4OCO5)ncnc3c2)CC1 [saracatinib]
Outline: (§1)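 K562 cells at 2×10^6 cells/mL were exposed to 10 μM compound for 30 min, then aliquots were heated for 3 min across 48°C-58°C, pooled, and extracted in PBS containing 0.5% NP-40 at 4°C. The supernatant after 21,000xg for 90 min was taken as soluble protein and measured by TMTpro 16plex LC-MS/MS with channel sums equalised. Thermal stability is reported relative to control samples, with values from duplicates. Fold changes are given on a log2 scale.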

sotrastaurin = compound: CN1CCN(c2nc(C3=C(c4c[nH]c5ccccc45)C(=O)NC3=O)c3ccccc3n2)CC1 [sotrastaurin]
Outline: as §1

alvocidib = compound: CN1CC[C@H](c2c(O)cc(O)c3c(=O)cc(-c4ccccc4Cl)oc23)[C@H](O)C1 [alvocidib]
Outline: as §1

Tubastatin A = compound: CN1CCc2c(c3ccccc3n2Cc2ccc(C(=O)NO)cc2)C1 [Tubastatin A]
Outline: as §1

[1] = compound: CNC(=O)C1=CC=CC=C1NC2=NC(=NC=C2Cl)NC3=C(C=C(C=C3)N4CCOCC4)OC
Outline: as §1

defactinib = compound: CNC(=O)c1ccc(Nc2ncc(C(F)(F)F)c(NCc3nccnc3N(C)S(C)(=O)=O)n2)cc1 [defactinib]
Outline: as §1

rucaparib = compound: CNCc1ccc(-c2[nH]c3cc(F)cc4c3c2CCNC4=O)cc1 [rucaparib]
Outline: as §1

[2] = compound: CNc1nc(-c2ccc3c(N)n[nH]c3c2)cc(N2C[C@@H](C(=O)NC3CCCCC3)CC[C@H]2C)n1
Outline: as §1

encorafenib = compound: COC(=O)N[C@@H](C)CNc1nccc(-c2cn(C(C)C)nc2-c2cc(Cl)cc(NS(C)(=O)=O)c2F)n1 [encorafenib]
Outline: as §1

[3] = compound: COC(=O)[C@H](CCSC)NC(=O)C1=C(C=C(C=C1)NC[C@H](CS)N)C2=CC=CC=C2
Outline: as §1

Measured: log2 fold change

AP3B1 (UniProt O00203)
inactive: saracatinib -0.033 | sotrastaurin -0.039 | alvocidib -0.031 | Tubastatin A 0.102 | [1] -0.005 | defactinib -0.036 | rucaparib 0.058 | [2] 0.04 | encorafenib -0.002 | [3] 0.001

APOBR (UniProt Q0VD83)
inactive: saracatinib 0.017 | sotrastaurin 0.046 | alvocidib -0.014 | Tubastatin A -0.004 | [1] -0.041 | defactinib -0.001 | rucaparib 0.004 | [2] -0.075 | encorafenib -0.006 | [3] 0.035

AP1B1 (UniProt Q10567)
inactive: saracatinib 0.037 | sotrastaurin -0.006 | alvocidib -0.009 | Tubastatin A -0.009 | [1] 0.011 | defactinib -0.091 | rucaparib 0.019 | [2] 0.013 | encorafenib 0.012 | [3] -0.014

ARHGAP18 (UniProt Q8N392)
inactive: saracatinib -0.142 | sotrastaurin -0.062 | alvocidib -0.009 | Tubastatin A 0.106 | [1] 0.014 | defactinib -0.034 | rucaparib 0.087 | [2] 0.083 | encorafenib 0.122 | [3] -0.09

APEH (UniProt P13798)
inactive: saracatinib 0.004 | sotrastaurin 0.025 | alvocidib 0.002 | Tubastatin A -0.014 | [1] -0.025 | defactinib 0.001 | rucaparib -0.029 | [2] -0.005 | encorafenib -0.014 | [3] 0.015

ANKRD54 (UniProt Q6NXT1)
inactive: saracatinib 0.123 | sotrastaurin 0.007 | alvocidib 0.024 | Tubastatin A 0.02 | [1] -0.054 | defactinib -0.132 | rucaparib 0.007 | [2] -0.046 | encorafenib -0.076 | [3] -0.058

APMAP (UniProt Q9HDC9)
inactive: saracatinib 0.036 | sotrastaurin 0.036 | alvocidib 0.008 | Tubastatin A -0.035 | [1] 0.047 | defactinib -0.014 | rucaparib -0.111 | [2] -0.021 | encorafenib -0.006 | [3] 0.01

APRT (UniProt P07741)
inactive: saracatinib -0.013 | sotrastaurin 0.005 | alvocidib 0.013 | Tubastatin A -0.002 | [1] -0.041 | defactinib -0.006 | rucaparib -0.023 | [2] -0.015 | encorafenib -0.002 | [3] 0.017

7 successive records already listed:
APOBR (UniProt Q0VD83)
inactive: saracatinib 0.017 | sotrastaurin 0.046 | alvocidib -0.014 | Tubastatin A -0.004 | [1] -0.041 | defactinib -0.001 | rucaparib 0.004 | [2] -0.075 | encorafenib -0.006 | [3] 0.035

AP1B1 (UniProt Q10567)
inactive: saracatinib 0.037 | sotrastaurin -0.006 | alvocidib -0.009 | Tubastatin A -0.009 | [1] 0.011 | defactinib -0.091 | rucaparib 0.019 | [2] 0.013 | encorafenib 0.012 | [3] -0.014

ARHGAP18 (UniProt Q8N392)
inactive: saracatinib -0.142 | sotrastaurin -0.062 | alvocidib -0.009 | Tubastatin A 0.106 | [1] 0.014 | defactinib -0.034 | rucaparib 0.087 | [2] 0.083 | encorafenib 0.122 | [3] -0.09

APEH (UniProt P13798)
inactive: saracatinib 0.004 | sotrastaurin 0.025 | alvocidib 0.002 | Tubastatin A -0.014 | [1] -0.025 | defactinib 0.001 | rucaparib -0.029 | [2] -0.005 | encorafenib -0.014 | [3] 0.015

ANKRD54 (UniProt Q6NXT1)
inactive: saracatinib 0.123 | sotrastaurin 0.007 | alvocidib 0.024 | Tubastatin A 0.02 | [1] -0.054 | defactinib -0.132 | rucaparib 0.007 | [2] -0.046 | encorafenib -0.076 | [3] -0.058

APMAP (UniProt Q9HDC9)
inactive: saracatinib 0.036 | sotrastaurin 0.036 | alvocidib 0.008 | Tubastatin A -0.035 | [1] 0.047 | defactinib -0.014 | rucaparib -0.111 | [2] -0.021 | encorafenib -0.006 | [3] 0.01

APRT (UniProt P07741)
inactive: saracatinib -0.013 | sotrastaurin 0.005 | alvocidib 0.013 | Tubastatin A -0.002 | [1] -0.041 | defactinib -0.006 | rucaparib -0.023 | [2] -0.015 | encorafenib -0.002 | [3] 0.017

More results:

ARF3 (UniProt P61204)
inactive: saracatinib 0.058 | sotrastaurin 0.017 | alvocidib -0.009 | Tubastatin A -0.024 | [1] -0.027 | defactinib 0.002 | rucaparib -0.049 | [2] -0.017 | encorafenib 0.021 | [3] -0.005

ANK3 (UniProt Q12955)
inactive: saracatinib -0.151 | sotrastaurin 0.067 | alvocidib 0.058 | Tubastatin A 0.155 | [1] -0.013 | defactinib -0.034 | rucaparib 0.344 | [2] -0.012 | encorafenib 0.156 | [3] -0.1

APOA1 (UniProt P02647)
inactive: saracatinib -0.017 | sotrastaurin 0.236 | alvocidib -0.112 | Tubastatin A -0.026 | [1] 0.206 | defactinib 0.007 | rucaparib -0.183 | [2] 0.034 | encorafenib -0.098 | [3] 0.033

ARF6 (UniProt P62330)
inactive: saracatinib 0.012 | sotrastaurin 0.075 | alvocidib 0.001 | Tubastatin A -0.001 | [1] -0.077 | defactinib 0.02 | rucaparib -0.044 | [2] 0.013 | encorafenib 0.017 | [3] 0.02

ANKRD28 (UniProt O15084)
inactive: saracatinib 0.02 | sotrastaurin -0.013 | alvocidib -0.003 | Tubastatin A -0.001 | [1] 0.016 | defactinib -0.041 | rucaparib -0.014 | [2] -0.002 | encorafenib 0.042 | [3] 0.009

ANKRD49 (UniProt Q8WVL7)
inactive: saracatinib -0.045 | sotrastaurin -0.021 | alvocidib -0.067 | Tubastatin A 0.002 | [1] -0.048 | defactinib -0.078 | rucaparib -0.018 | [2] -0.015 | encorafenib 0.032 | [3] 0.001

AP1M1 (UniProt Q9BXS5)
inactive: saracatinib 0.009 | sotrastaurin -0.029 | alvocidib -0.022 | Tubastatin A -0.004 | [1] -0.007 | defactinib -0.047 | rucaparib 0.006 | [2] 0.015 | encorafenib 0.043 | [3] -0.005

ARHGDIA (UniProt P52565)
inactive: saracatinib -0.006 | sotrastaurin -0.008 | alvocidib -0.081 | Tubastatin A 0.053 | [1] -0.031 | defactinib -0.037 | rucaparib -0.067 | [2] 0.017 | encorafenib 0.023 | [3] -0.029

ANKRD13A (UniProt Q8IZ07)
inactive: saracatinib 0.012 | sotrastaurin -0.067 | alvocidib -0.092 | Tubastatin A -0.031 | [1] 0.015 | defactinib -0.096 | rucaparib -0.039 | [2] -0.041 | encorafenib -0.045 | [3] -0.051

ARHGAP45 isoform 2 (UniProt Q92619)
inactive: saracatinib -0.005 | sotrastaurin -0.111 | alvocidib -0.005 | Tubastatin A -0.066 | [1] -0.016 | defactinib -0.111 | rucaparib 0.178 | [2] 0.005 | encorafenib 0.039 | [3] 0.101

AP5Z1 (UniProt O43299)
inactive: saracatinib -0.135 | sotrastaurin 0.121 | alvocidib 0.037 | Tubastatin A -0.002 | [1] -0.15 | defactinib 0.078 | rucaparib 0.214 | [2] -0.06 | encorafenib -0.239 | [3] -0.079

ARFIP2 (UniProt P53365)
inactive: saracatinib -0.029 | sotrastaurin -0.137 | alvocidib -0.096 | Tubastatin A 0 | [1] -0.25 | defactinib -0.092 | rucaparib -0.053 | [2] -0.001 | encorafenib -0.01 | [3] 0.106

APEX1 (UniProt P27695)
inactive: saracatinib 0.008 | sotrastaurin -0.002 | alvocidib -0.024 | Tubastatin A -0.039 | [1] 0.073 | defactinib -0.155 | rucaparib -0.041 | [2] 0.003 | encorafenib 0.06 | [3] -0.01

ARCN1 (UniProt P48444)
inactive: saracatinib 0.013 | sotrastaurin -0.011 | alvocidib -0.016 | Tubastatin A -0.017 | [1] 0.016 | defactinib -0.068 | rucaparib -0.019 | [2] -0.035 | encorafenib 0.078 | [3] -0.02

ARHGEF1 isoform 3 (UniProt Q92888)
inactive: saracatinib -0.07 | sotrastaurin -0.187 | alvocidib 0.051 | Tubastatin A 0.066 | [1] -0.023 | defactinib 0.02 | rucaparib 0.295 | [2] 0.08 | encorafenib 0.189 | [3] -0.047

AQR (UniProt O60306)
inactive: saracatinib -0.022 | sotrastaurin -0.071 | alvocidib 0.076 | Tubastatin A 0.053 | [1] -0.002 | defactinib -0.202 | [2] 0.031 | [3] -0.036

ARHGEF7 isoform 5 (UniProt Q14155)
inactive: saracatinib -0.033 | sotrastaurin -0.183 | alvocidib -0.079 | Tubastatin A -0.033 | [1] 0.022 | defactinib -0.137 | [2] -0.027 | [3] -0.089

APOBEC3C (UniProt Q9NRW3)
inactive: saracatinib -0.023 | sotrastaurin 0.008 | alvocidib 0.206 | Tubastatin A 0.071 | [1] 0.011 | defactinib 0.275 | rucaparib 0.255 | [2] 0.056 | encorafenib 0.122 | [3] 0.032

ANXA3 (UniProt P12429)
inactive: saracatinib 0.041 | sotrastaurin 0.049 | alvocidib -0.021 | Tubastatin A -0.013 | [1] -0.019 | defactinib 0.005 | rucaparib -0.06 | [2] -0.052 | encorafenib 0.063 | [3] -0.013

ANXA11 (UniProt P50995)
inactive: saracatinib -0.021 | sotrastaurin -0.049 | alvocidib -0.12 | Tubastatin A 0.021 | [1] 0.024 | defactinib -0.08 | rucaparib -0.045 | [2] 0.024 | encorafenib 0.045 | [3] -0.042

APOM (UniProt O95445)
inactive: saracatinib 0.301 | sotrastaurin 0.177 | alvocidib 0.07 | Tubastatin A -0.181 | [1] 0.091 | defactinib -0.097 | rucaparib -0.181 | [2] -0.122 | encorafenib 0.06 | [3] 0.078

ANXA4 (UniProt P09525)
inactive: saracatinib -0.077 | sotrastaurin 0.02 | alvocidib -0.078 | Tubastatin A 0.004 | [1] 0.09 | defactinib -0.081 | rucaparib -0.02 | [2] 0.038 | encorafenib 0.03 | [3] 0
